Data published in patent US10563263B2, “Genetic polymorphisms associated with statin response and cardiovascular diseases, methods of detection and uses thereof” (CELERA CORPORATION, priority 2010, dated 2020).
The source gives many values for each of these; only a part stands here.

Test system: CHD
Assay: Meta-analysis of CARE and WOSCOPS combined, synergy index, CHD endpoint
Type: in vivo, human
From the text: Tables 4-5 provide meta-analyses of CARE and WOSCOPS combined (2nd section of each table) for two endpoints (CHD and CVD) and three genetic models (dominant, recessive, and additive), as well as logistic regression analyses of CARE (3rd section of each table) and WOSCOPS (4th section of each table) individually.
Tables 12 and 17 provide results of meta-analysis of the CARE and WOSCOPS sample sets combined by direct genotyping and by imputing genotypes.
“P” indicates the p-value, and “P(R)” (or “P.R.”) indicates the p-value random effect. Both of these are p-values corresponding to a statistical test of whether the combined synergy index is equal to one but use different assumptions to derive the p-value. “P” is calculated using a fixed effects model, and “P(R)” is calculated using a random effects model.
“OR” indicates the odds ratio (synergy index) calculated from a fixed effects model, and “OR(R)” (or “OR.R.”) indicates the odds ratio (synergy index) calculated from a random effects model.

[1] = rs2488557 allele C DOMINANT Imputed
[2] = rs2560708 allele T ADDITIVE Imputed
[3] = rs2617841 allele G DOMINANT Imputed
[4] = rs2622499 allele G DOMINANT Imputed
[5] = rs2642936 allele T ADDITIVE Imputed
[6] = rs2660633 allele A DOMINANT Imputed
[7] = rs2660634 allele C DOMINANT Imputed
[8] = rs2660648 allele A ADDITIVE Imputed
[9] = rs2660648 allele A DOMINANT Imputed
[10] = rs2681505 allele T ADDITIVE Imputed
[11] = rs2832634 allele G ADDITIVE Imputed
[12] = rs2832637 allele T ADDITIVE Imputed
[13] = rs2843167 allele A DOMINANT Imputed
[14] = rs2876227 allele C ADDITIVE Imputed
[15] = rs2876227 allele C GENOTYPIC Imputed
[16] = rs2882097 allele A DOMINANT Imputed
[17] = rs2909862 allele G DOMINANT Imputed
[18] = rs3001945 allele T DOMINANT Imputed
[19] = rs3011020 allele C DOMINANT Imputed
[20] = rs3743794 allele G DOMINANT Imputed
[21] = rs3756154 allele C ADDITIVE Imputed
[22] = rs3756154 allele C DOMINANT Imputed
[23] = rs3775850 allele A DOMINANT Imputed
[24] = rs3775851 allele C DOMINANT Imputed
[25] = rs3793044 allele C ADDITIVE Imputed
[26] = rs3793044 allele C DOMINANT Imputed
[27] = rs3793053 allele C DOMINANT Imputed
[28] = rs3796246 allele G DOMINANT Imputed
[29] = rs3806003 allele A ADDITIVE Imputed
[30] = rs3806003 allele A DOMINANT Imputed
[31] = rs3806004 allele T DOMINANT Imputed
[32] = rs3806010 allele T DOMINANT Imputed
[33] = rs3806014 allele T DOMINANT Imputed
[34] = rs3806015 allele A DOMINANT Imputed
[35] = rs3806018 allele A DOMINANT Imputed
[36] = rs3806019 allele A DOMINANT Imputed
[37] = rs3806024 allele T DOMINANT Imputed
[38] = rs3915080 allele A GENOTYPIC Imputed
[39] = rs3942254 allele T ADDITIVE Imputed
[40] = rs3942254 allele T DOMINANT Imputed
[41] = rs3945085 allele A DOMINANT Imputed
[42] = rs3976737 allele G ADDITIVE Imputed
[43] = rs4029119 allele G ADDITIVE Imputed
[44] = rs4029119 allele G DOMINANT Imputed
[45] = rs4076201 allele G GENOTYPIC Imputed

For `CC[C@H](C)C(=O)O[C@H]1C[C@H](O)C=C2C=C[C@H](C)[C@H](CC[C@@H](O)C[C@@H](O)CC(=O)O)[C@H]21` [Pravastatin, pravastatin], the OR [1] was 0.5776, the “OR(R)” value [1] was 0.5776 and the “Meta-analysis OR” value (rs2492367 allele A vs G (ref)) was 0.61. The “Meta-analysis OR” value (rs2495295 allele G vs A (ref)) was 0.66, the OR [2] was 0.6487 and the “OR(R)” value [2] was 0.6487. For the same molecule, the OR [3] was 0.633, the “OR(R)” value [3] was 0.633 and the OR [4] was 0.6573. For the same molecule, the “OR(R)” value [4] was 0.6573, the OR [5] was 1.4936 and the “OR(R)” value [5] was 1.4936. The OR [6] was 0.6278, the “OR(R)” value [6] was 0.6278 and the OR [7] was 0.6278. The “OR(R)” value [7] was 0.6278, the OR [8] was 0.6664 and the “OR(R)” value [8] was 0.6664. For the same molecule, the OR [9] was 0.6016, the “OR(R)” value [9] was 0.6016 and the OR [10] was 0.6474. The “OR(R)” value [10] was 0.6474, the OR [11] was 1.8637 and the “OR(R)” value [11] was 1.8637. For the same molecule, the OR [12] was 1.8637, the “OR(R)” value [12] was 1.8637 and the OR [13] was 0.6208. The “OR(R)” value [13] was 0.6208, the “Meta-analysis OR” value (rs2843171 allele A vs G (ref)) was 0.64 and the “Meta-analysis OR” value (rs2869680, A1 (non-ref) A, A2 (ref) G) was 0.75. For the same molecule, the OR [14] was 1.3526, the “OR(R)” value [14] was 1.3526 and the OR [15] was 1.9073. The “OR(R)” value [15] was 1.9073, the “Meta-analysis OR” value (rs2880563, A1 (non-ref) G, A2 (ref) A) was 1.41 and the OR [16] was 1.5819. For the same molecule, the “OR(R)” value [16] was 1.5819, the OR [17] was 1.7275 and the “OR(R)” value [17] was 1.7275. For the same molecule, the OR [18] was 1.5254, the “OR(R)” value [18] was 1.5254 and the OR [19] was 1.4992. For the same molecule, the “OR(R)” value [19] was 1.4992, the “Meta-analysis OR” value (rs3732136, A1 (non-ref) A, A2 (ref) G) was 1.51 and the OR [20] was 0.6224. For the same molecule, the “OR(R)” value [20] was 0.6224, the OR [21] was 0.7236 and the “OR(R)” value [21] was 0.7236. The OR [22] was 0.6536, the “OR(R)” value [22] was 0.6536 and the “Meta-analysis OR” value (rs3759607 allele G vs A (ref)) was 1.96. The OR [23] was 0.6779, the “OR(R)” value [23] was 0.6779 and the OR [24] was 0.6839. For the same molecule, the “OR(R)” value [24] was 0.6839, the OR [25] was 1.9638 and the “OR(R)” value [25] was 1.9638. The OR [26] was 2.0697, the “OR(R)” value [26] was 2.0697 and the OR [27] was 1.9787. The “OR(R)” value [27] was 1.9787, the OR [28] was 0.5398 and the “OR(R)” value [28] was 0.5398. For the same molecule, the OR [29] was 1.9638, the “OR(R)” value [29] was 1.9638 and the OR [30] was 2.0697. The “OR(R)” value [30] was 2.0697, the OR [31] was 1.9576 and the “OR(R)” value [31] was 1.9576. For the same molecule, the OR [32] was 1.9576, the “OR(R)” value [32] was 1.9576 and the OR [33] was 1.9649. For the same molecule, the “OR(R)” value [33] was 1.9649, the OR [34] was 1.9576 and the “OR(R)” value [34] was 1.9576. For the same molecule, the OR [35] was 1.9419, the “OR(R)” value [35] was 1.9419 and the OR [36] was 1.9576. For the same molecule, the “OR(R)” value [36] was 1.9576, the OR [37] was 1.9787 and the “OR(R)” value [37] was 1.9787. The OR [38] was 2.0907, the “OR(R)” value [38] was 2.0907 and the OR [39] was 0.7166. For the same molecule, the “OR(R)” value [39] was 0.7166, the OR [40] was 0.6139 and the “OR(R)” value [40] was 0.6139. The OR [41] was 1.5947, the “OR(R)” value [41] was 1.5947 and the OR [42] was 0.6147. For the same molecule, the “OR(R)” value [42] was 0.6147, the OR [43] was 0.2569 and the “OR(R)” value [43] was 0.2569. For the same molecule, the OR [44] was 0.2637, the “OR(R)” value [44] was 0.2637 and the OR [45] was 3.0129. The “OR(R)” value [45] was 3.0129 and the OR (rs4076201 allele G RECESSIVE Imputed) was 2.9721.
